# In all, about 390,000 compounds went through this assay and about 910 (0.23%) were called active. The shares of active, inactive and inconclusive entries below differ from those in the screen. Calls follow the shape of the dose curve; as a rule, active = well fitted inhibition curve with a large enough effect; inconclusive = small, poorly fitted or top-dose-only effect; inactive = no such curve, though single readings can be large or run the other way. Potencies of inconclusive entries are doubtful fits and often do not repeat.
# By UniProt entry, the sequences of proteins in these tests, tags left out. Where a name states a change or a piece, a line headed by the entry shows the natural chain unless it says otherwise.
# UniProt O94782: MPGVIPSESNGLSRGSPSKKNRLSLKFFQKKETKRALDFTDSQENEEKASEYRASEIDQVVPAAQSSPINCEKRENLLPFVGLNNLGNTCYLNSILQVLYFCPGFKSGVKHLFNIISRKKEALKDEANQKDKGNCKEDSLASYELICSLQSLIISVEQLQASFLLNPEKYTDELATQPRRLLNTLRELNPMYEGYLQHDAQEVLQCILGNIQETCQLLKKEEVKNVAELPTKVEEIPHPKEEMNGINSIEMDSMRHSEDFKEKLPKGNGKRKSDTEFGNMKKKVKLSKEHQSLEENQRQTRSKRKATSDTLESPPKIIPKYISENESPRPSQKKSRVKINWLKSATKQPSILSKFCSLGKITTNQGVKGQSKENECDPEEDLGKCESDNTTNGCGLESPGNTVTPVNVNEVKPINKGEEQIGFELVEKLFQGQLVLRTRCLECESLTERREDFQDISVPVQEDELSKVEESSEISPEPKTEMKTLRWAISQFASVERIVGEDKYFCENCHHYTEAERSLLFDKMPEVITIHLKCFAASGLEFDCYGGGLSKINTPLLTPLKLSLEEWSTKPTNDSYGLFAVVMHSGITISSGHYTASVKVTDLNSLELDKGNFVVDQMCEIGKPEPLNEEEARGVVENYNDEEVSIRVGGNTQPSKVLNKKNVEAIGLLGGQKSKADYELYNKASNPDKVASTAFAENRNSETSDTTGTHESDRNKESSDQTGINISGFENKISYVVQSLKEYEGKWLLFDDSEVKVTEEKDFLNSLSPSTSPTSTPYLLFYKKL
# Molecular target: Ubiquitin carboxyl-terminal hydrolase 1 (Homo sapiens) (UniProt O94782)
# Assay: Inhibitors of USP1/UAF1: Primary Screen; also: nearly all actives have a fitted effect of over 60% in size
# Details: recombinant USP1/UAF1, Ub-Rhodamine cleavage fluorescence; series mostly up to 57.1 µM
# Outline: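 High-throughput fluorogenic screen: 1nM USP1/UAF1 complex, Ub-Rho substrate 150nM final, 50mM HEPES pH 7.8 with 0.5mM EDTA, 0.1 mg/ml BSA, 1mM TCEP and 0.01% Tween-20.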
# Potency is read from the fitted curve at half-maximal effect.
row,SMILES,Potency
1,Cc1c(-n2cc(C(=O)c3cc(F)ccc3O)cc(C#N)c2=O)c(=O)n(-c2ccccc2)n1C,inactive
2,CCOc1cc(C2Nc3cccc4cccc(c34)N2)ccc1O,"inconclusive: 39.8 µM [inhibitor, partial curve, poor fit]"
3,CCC(Oc1ccccc1)C(=O)Nc1cc(-c2ccccc2OC)nn1-c1ccccc1 (centres undefined),inactive
4,O=C(CN(C(=O)c1csnn1)c1cccc2c1CCCC2)NC1CCCC1,"inconclusive: 17.8 µM [inhibitor, partial curve]"
5,O=C(/C=C/c1ccccc1)CC(O)(c1ccccc1)C(F)(F)F (centres undefined),"inconclusive: 5.01 µM [inhibitor, partial curve]"
6,COc1nc(Nc2ccc(O)cc2)nc(OC(C(F)(F)F)C(F)(F)F)n1,"inconclusive: 44.7 µM [inhibitor, partial curve, poor fit]"
7,CCCNS(=O)(=O)c1ccc(OCC(=O)Nc2ccc3c(c2)OCCO3)c(C)c1,"inconclusive: 31.6 µM [inhibitor, single point]"
8,CN(C)CCCN(Cc1cc2cc3c(cc2[nH]c1=O)OCO3)C(=S)Nc1ccccc1,"inconclusive: 0.794 µM [inhibitor, full curve]"
9,COc1ccc(C(=O)NCC(c2ccco2)S(=O)(=O)c2cccs2)cc1 (centres undefined),"inconclusive: 3.55 µM [inhibitor, full curve, poor fit]"
10,O=C1CC(c2ccccc2)C(C(=O)O)N1 (centres undefined),"inconclusive: 5.62 µM [inhibitor, partial curve]"
11,CN1CCC(=O)N([C@H](CSc2ccccc2)c2ccccc2)CC1,"inconclusive: 35.5 µM [inhibitor, single point]"
12,C=CCn1c(SCC(=O)Nc2cc(C)on2)nc2sc(C)c(C)c2c1=O,"inconclusive: 35.5 µM [inhibitor, partial curve, poor fit]"
13,COc1ccc(C(=O)C=Cc2cccs2)c(O)c1,"inconclusive: 7.94 µM [inhibitor, single point]"
14,N#CC1=C(N)Oc2cc(N)ccc2C1c1cccc(Br)c1 (centres undefined),"inconclusive: 8.91 µM [inhibitor, partial curve]"
15,CC(=O)N(c1ccccc1)C1SC(=O)N(c2ccccc2)C1=O (centres undefined),"inconclusive: 0.631 µM [inhibitor, full curve, poor fit]"
16,O=C1Cn2c(nc3ccccc32)-c2ccccc2N1,"inconclusive: 31.6 µM [inhibitor, single point]"
17,Cc1cc(C)c2c(=N)c3ccccc3n(CCCCCCCCn3c4ccccc4c(=N)c4c(C)cc(C)nc43)c2n1,"inconclusive: 31.6 µM [inhibitor, single point]"
18,O=C(N/N=C\c1ccc(OC(=O)c2cccs2)cc1)c1ccc(Cl)cc1,"inconclusive: 0.251 µM [inhibitor, full curve, poor fit]"
19,Cc1ccc2cc(C(c3nnnn3C3CCCC3)N(Cc3ccco3)Cc3cccs3)c(=O)[nH]c2c1 (centres undefined),"inconclusive: 8.91 µM [inhibitor, partial curve]"
20,Cc1cc(C)cc(NC(=O)CCN2C(=O)c3ccccc3Sc3ncccc32)c1,inactive

# No new results follow: an excerpt of the list.
row,SMILES,Potency
13,COc1ccc(C(=O)C=Cc2cccs2)c(O)c1,"inconclusive: 7.94 µM [inhibitor, single point]"
14,N#CC1=C(N)Oc2cc(N)ccc2C1c1cccc(Br)c1 (centres undefined),"inconclusive: 8.91 µM [inhibitor, partial curve]"

# A different layout for some results above:
row | SMILES | Potency
16 | O=C1Cn2c(nc3ccccc32)-c2ccccc2N1 | inconclusive: 31.6 µM [inhibitor, single point]
17 | Cc1cc(C)c2c(=N)c3ccccc3n(CCCCCCCCn3c4ccccc4c(=N)c4c(C)cc(C)nc43)c2n1 | inconclusive: 31.6 µM [inhibitor, single point]

# Following part:

row,SMILES,Potency
1,O=C(CC1C(=O)N(c2ccccc2)C(=O)N1Cc1ccco1)Nc1ccccc1 (centres undefined),"inconclusive: 10 µM [inhibitor, partial curve, poor fit]"
2,Nc1[nH]n2c(=O)c3c(nc2c1N=Nc1ccccc1)CCCC3,inactive
3,CN(C)c1ccc(C(=O)NCc2ccc3c(c2)CCN3C(=O)c2ccccc2)cc1,"inconclusive: 44.7 µM [inhibitor, partial curve, poor fit]"
4,O=c1[nH]c2ccccc2cc1CN(CC1CCCO1)S(=O)(=O)c1ccccc1 (centres undefined),"inconclusive: 0.398 µM [inhibitor, full curve, poor fit]"
5,Cc1nnc(N/N=C/c2cccc(C(F)(F)F)c2)n1N,"inconclusive: 50.1 µM [inhibitor, partial curve, poor fit]"
6,CCc1ccc(C(C(=O)NCc2ccc(F)cc2)N(C(=O)c2csnn2)C2CC2)cc1 (centres undefined),"inconclusive: 28.2 µM [inhibitor, single point]"
7,Cc1ccc(C)c(Nc2nn3c(=O)c4ccc(C(=O)NCc5cccs5)cc4nc3s2)c1,"inconclusive: 22.4 µM [inhibitor, partial curve, poor fit]"
8,Cc1cccc(N2CCN(C(=O)c3nn(C)c4c3CS(=O)(=O)c3ccccc3-4)CC2C)c1 (centres undefined),"inconclusive: 0.355 µM [inhibitor, full curve, poor fit]"
9,CCOCCCNC(=O)Cn1nc(-c2ccccc2)ccc1=O,"inconclusive: 8.91 µM [inhibitor, partial curve, poor fit]"
10,Cc1cc([N+](=O)[O-])nn1CCCC(=O)Nc1cc(Oc2ccc(F)cc2)cc([N+](=O)[O-])c1,inactive
11,COc1ccc2c(c1)CCCC2NS(=O)(=O)OCC(Cl)(Cl)Cl (centres undefined),"inconclusive: 0.282 µM [inhibitor, full curve]"
12,O=C(C1CCN(c2nc3ccccc3[nH]2)CC1)N1CCN(c2cccc(Cl)c2)CC1,inactive
13,COc1ccc(N2C(=O)[C@@H]3[C@H](C2=O)[C@H]2c4ccccc4C=CN2[C@@H]3C(C)=O)cc1,active: 15.8 µM
14,COc1cc2c(-c3ccccc3Cl)nc3c(c(C)nn3-c3ccccc3)c2cc1OC,"inconclusive: 5.01 µM [inhibitor, full curve, poor fit]"
15,Cc1cccc(C(=O)Nc2ccccc2C(=O)OCc2cc(=O)n3nc(C4CC4)sc3n2)c1,"inconclusive: 6.31 µM [inhibitor, partial curve, poor fit]"
16,Cc1nc2c(-c3ccccc3)c(C)nn2c(C)c1CCC(=O)NCc1ccco1,"inconclusive: 35.5 µM [inhibitor, partial curve]"
17,Cc1ccc(OCC(=O)Nc2ccc(S(=O)(=O)N(Cc3ccccc3)c3ccccc3)cc2)cc1,"inconclusive: 1.41 µM [inhibitor, full curve, poor fit]"
18,O=C(CCc1nc2sc3c(c2c(=O)[nH]1)CCCC3)Nc1cccc(Cl)c1,inactive
19,CC(SCc1ccccc1)C(=O)NN=C1CCN(C)CC1 (centres undefined),"inconclusive: 31.6 µM [inhibitor, single point]"
